Experimental data as given in PMC6802841.
These are yes or no findings as the source states them, for the method shown. A result given as binding can be weak or reduced; the word gives no strength.

Columns and labels:
Assay in all cases: two-hybrid; mature SAP11 proteins in pDEST-GAD-T7, full length TCPs or TCP domains in pDEST-GBK-T7; S. cerevisiae AH109; growth on media without leucine, tryptophan and histidine with 20 mM 3-Amino-1,2,4-triazole (3AT)
[1] = biological target: T1, AtTCP2, full length (Arabidopsis thaliana) (UniProt Q93V43)
T1 sequence: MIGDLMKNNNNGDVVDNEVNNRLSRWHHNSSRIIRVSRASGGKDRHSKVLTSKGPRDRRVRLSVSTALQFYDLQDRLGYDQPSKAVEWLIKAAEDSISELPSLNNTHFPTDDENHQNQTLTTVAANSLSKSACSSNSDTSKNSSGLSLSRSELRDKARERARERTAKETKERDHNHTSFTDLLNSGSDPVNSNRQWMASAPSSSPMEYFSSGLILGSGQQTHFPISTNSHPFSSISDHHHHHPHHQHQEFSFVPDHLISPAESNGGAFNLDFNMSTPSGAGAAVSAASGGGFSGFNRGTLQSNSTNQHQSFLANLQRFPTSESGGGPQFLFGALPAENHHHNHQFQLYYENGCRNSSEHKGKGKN

[2] = biological target: T2, BRANCHED 1 (BRC1, AtTCP18), full length (Arabidopsis thaliana) (UniProt A1YKT1)
T2 sequence: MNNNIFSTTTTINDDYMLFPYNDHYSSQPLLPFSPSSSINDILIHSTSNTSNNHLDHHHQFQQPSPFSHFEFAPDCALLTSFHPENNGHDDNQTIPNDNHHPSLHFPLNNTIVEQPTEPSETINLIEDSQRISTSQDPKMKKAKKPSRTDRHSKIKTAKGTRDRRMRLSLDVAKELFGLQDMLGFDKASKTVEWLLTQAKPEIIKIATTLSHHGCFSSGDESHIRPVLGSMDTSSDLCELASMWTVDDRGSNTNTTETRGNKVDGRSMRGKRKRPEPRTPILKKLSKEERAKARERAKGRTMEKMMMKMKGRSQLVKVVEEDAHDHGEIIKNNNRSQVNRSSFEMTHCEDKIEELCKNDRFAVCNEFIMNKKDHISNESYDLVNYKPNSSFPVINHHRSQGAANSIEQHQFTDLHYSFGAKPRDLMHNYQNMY

[3] = biological target: T3, TCP domain of AtTCP2 (Arabidopsis thaliana) (UniProt Q93V43)
T3 sequence: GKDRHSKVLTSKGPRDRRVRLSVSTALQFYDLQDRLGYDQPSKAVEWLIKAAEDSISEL

[4] = biological target: T4, TCP domain of BRC1 (AtTCP18) (Arabidopsis thaliana) (UniProt A1YKT1)
T4 sequence: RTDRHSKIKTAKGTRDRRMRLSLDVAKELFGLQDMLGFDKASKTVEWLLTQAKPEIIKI

[5] = biological target: T5, TEOSINTE BRANCHED 1 (TB1, ZmTCP02), full length (Zea mays) (UniProt Q93WI2)
T5 sequence: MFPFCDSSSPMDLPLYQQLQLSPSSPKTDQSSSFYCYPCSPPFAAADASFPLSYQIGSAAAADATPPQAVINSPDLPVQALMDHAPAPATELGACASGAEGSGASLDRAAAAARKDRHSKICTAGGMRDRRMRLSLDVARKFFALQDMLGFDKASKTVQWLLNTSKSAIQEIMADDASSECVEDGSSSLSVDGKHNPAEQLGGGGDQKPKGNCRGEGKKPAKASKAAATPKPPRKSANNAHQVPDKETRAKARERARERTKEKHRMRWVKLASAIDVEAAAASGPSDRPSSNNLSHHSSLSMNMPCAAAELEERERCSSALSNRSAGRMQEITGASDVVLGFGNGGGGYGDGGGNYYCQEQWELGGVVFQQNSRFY

Measured: binding

secreted AYWB protein 11 (SAP11) of Aster Yellows phytoplasma strain Witches' Broom
binds: all assays above

SAP11 homolog of Maize Bushy Stunt Phytoplasma (MBSP)
binds: [2] | [4] | [5]
